Laboratory results reported in patent US20260242486A1.
No constants are given. Whether binding was seen depends on the method and setting. Some results given as binding are weak or reduced against the parent protein; the word gives no strength. Sequences can lack the tags named with a protein.

Target: T1, CLL1 screening antigen CLL1-6×His (B918602) protein (UniProt Q5QGZ9)
T1 sequence (looked up): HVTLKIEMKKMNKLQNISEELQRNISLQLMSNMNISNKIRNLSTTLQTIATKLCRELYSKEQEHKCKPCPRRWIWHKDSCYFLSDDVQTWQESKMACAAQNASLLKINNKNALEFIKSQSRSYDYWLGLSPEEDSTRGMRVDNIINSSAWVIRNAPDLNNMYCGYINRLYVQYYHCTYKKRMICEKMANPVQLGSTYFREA
Experiment: monoclonal phage ELISA on coated CLL1-6×His (positive clone, OD450 > 0.5; value not given)

B1: single-domain antibody CLL1-VHH-1 (VHH, as phage-displayed clone in the screening ELISA) (VHH)
VHH: DVQLQESGGGLVQPGGSLRLSCAASGFTFGDYDMTWVRQAPGKGPEWVSAINSGGGSTYYADSVKGRFTISRDNAKNTLYLQMNSLKPEDTAVYYCATIDRLSTVVAGTYQPSDEYDYWGQGTQVTVSS
**Q.** B1 was tested. Which binding did it give?
**A.** Its binding is “binds”.
